Measured values published in PMC7819943, “Rice protein-binding microarrays: a tool to detect cis-acting elements near promoter regions in rice”.
The list shows a part of the results.

Amino acid sequences for entries named in this document (tags omitted).
UniProt Q0JBA9, entry or part of it: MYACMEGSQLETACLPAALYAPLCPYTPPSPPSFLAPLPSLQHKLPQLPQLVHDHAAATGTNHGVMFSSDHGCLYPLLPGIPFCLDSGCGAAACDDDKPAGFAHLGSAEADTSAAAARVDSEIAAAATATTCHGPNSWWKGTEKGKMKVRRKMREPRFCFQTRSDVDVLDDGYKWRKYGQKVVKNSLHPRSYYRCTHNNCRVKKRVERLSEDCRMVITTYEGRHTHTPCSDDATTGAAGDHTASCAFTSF

molecular target: OsWRKY34 (Oryza sativa, UniProt Q0JBA9 1-250); assay: protein-binding microarray (RPBM); PBS, 2% BSA, 51.3 ng/ul salmon testes DNA, 50 uM zinc acetate, 200 nM TF, 25 C, 1 h; high values mean tight binding; details: protein: recombinant; tags: N-terminal polyhistidine and DsRed monomer fusion (pET32a); label: CyDye5-dUTP incorporated in the synthesized complementary strand; 3' TTTTT single-stranded linker to array surface; dsDNA, one strand shown
Summary of the method: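 Per-feature fluorescence intensity (arbitrary units), read on an Axon 4000B scanner, is the binding signal. Transcription factors carrying an N-terminal polyhistidine tag and DsRed fusion were expressed in E. coli BL21-CodonPlus and purified on Ni–NTA. A custom Agilent array, made double-stranded by primer extension with Cy5-dUTP and blocked with 2% BSA, was incubated with 200 nM protein in PBS, 2% BSA, salmon testes DNA and 50 µM zinc acetate at 25 °C for 1 h and then washed.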

Sequence	binding signal
CACGAGTTCATCCCCGGTCCTGTAATCCATCGGATCCACACGGAGTCACCTAGTGCAG	8060 fluorescence intensity (a.u.)
GTGTGTGGTTGTGGAAATAGTGATTGTCAGAGAACGGATGCGGAGTCACCTAGTGCAG	8700 fluorescence intensity (a.u.)
CCCAAAGCTGCACAAGCCCACGCCCACGCCTACGCCCATGCGGAGTCACCTAGTGCAG	8550 fluorescence intensity (a.u.)
CTGTTTGTTCCTCGCACCATGTGAAAAGATCGGACGGAACCGGAGTCACCTAGTGCAG	8790 fluorescence intensity (a.u.)
AAATCTATATATATCTCTCTACGTATATATTTTTTTTCTTCGGAGTCACCTAGTGCAG	9590 fluorescence intensity (a.u.)
ACCCTAGTTCACGCCCACCGGGGATGCTGCGACTGCGAATCGGAGTCACCTAGTGCAG	8400 fluorescence intensity (a.u.)
CCTTGCTCTGCCGACGCCCTCCACCTGCTCGCCGTCGACGCGGAGTCACCTAGTGCAG	9190 fluorescence intensity (a.u.)
CTGTGTCCAATATTTGATCGTCCATCTTATTTAAATCTTTCGGAGTCACCTAGTGCAG	9730 fluorescence intensity (a.u.)
ATTCCGCTTCCCCGCTCTCTTCTGCAAGCGCGCAATAATCCGGAGTCACCTAGTGCAG	8720 fluorescence intensity (a.u.)
GCAGTCCCTGTTGATCCATCCTGCCACCGATCTTGTCTCTCGGAGTCACCTAGTGCAG	9300 fluorescence intensity (a.u.)
AGCTGGTTTGACCGACCGAGGTACCCACCTTATCACTCGTCGGAGTCACCTAGTGCAG	8550 fluorescence intensity (a.u.)
TGTTTTCATTTTACTGTGTATTTAATATTTTACCAATTACCGGAGTCACCTAGTGCAG	11000 fluorescence intensity (a.u.)
TATCCCTATTATCGCTCCTTTGCCACTGCTGCATCTTAGTCGGAGTCACCTAGTGCAG	8060 fluorescence intensity (a.u.)
CCCAATCCATCAGCCCATCTCCGGTTCTCCTCACATTTAACGGAGTCACCTAGTGCAG	9790 fluorescence intensity (a.u.)
ACCCGCCTGATCTGAGCTCACTGCATTGCCCCGGACTTTCCGGAGTCACCTAGTGCAG	9720 fluorescence intensity (a.u.)
GATCTAGGTACTTTGGGCGTGACCTGCGGAGGCGGGGAGGCGGAGTCACCTAGTGCAG	11800 fluorescence intensity (a.u.)
CATTTTTTCAGTTCAGTTCATATTCATATTTTCTTCTATCCGGAGTCACCTAGTGCAG	8710 fluorescence intensity (a.u.)
TCTCTTTTCTCATTTATTCACTTGCCACATCATTTTTCATCGGAGTCACCTAGTGCAG	8900 fluorescence intensity (a.u.)
AAAATCAGTATCTACATCTTACATCTTAGTAGTCATTTATCGGAGTCACCTAGTGCAG	8330 fluorescence intensity (a.u.)
AGGTCAGGGAGCTGGCGGTGGTGGGCGGGACGGGCAAGCTCGGAGTCACCTAGTGCAG	12000 fluorescence intensity (a.u.)
ACTAATATTTCCATCGTTTTAGGTTATAAGATGTTTTGACCGGAGTCACCTAGTGCAG	8110 fluorescence intensity (a.u.)

A different layout for some results above.

| Sequence | binding signal |
| --- | --- |
| CACGAGTTCATCCCCGGTCCTGTAATCCATCGGATCCACACGGAGTCACCTAGTGCAG | 8060 fluorescence intensity (a.u.) |
| CCCAAAGCTGCACAAGCCCACGCCCACGCCTACGCCCATGCGGAGTCACCTAGTGCAG | 8550 fluorescence intensity (a.u.) |
| ACCCTAGTTCACGCCCACCGGGGATGCTGCGACTGCGAATCGGAGTCACCTAGTGCAG | 8400 fluorescence intensity (a.u.) |
| CCTTGCTCTGCCGACGCCCTCCACCTGCTCGCCGTCGACGCGGAGTCACCTAGTGCAG | 9190 fluorescence intensity (a.u.) |
| ATTCCGCTTCCCCGCTCTCTTCTGCAAGCGCGCAATAATCCGGAGTCACCTAGTGCAG | 8720 fluorescence intensity (a.u.) |
| GCAGTCCCTGTTGATCCATCCTGCCACCGATCTTGTCTCTCGGAGTCACCTAGTGCAG | 9300 fluorescence intensity (a.u.) |
| TGTTTTCATTTTACTGTGTATTTAATATTTTACCAATTACCGGAGTCACCTAGTGCAG | 11000 fluorescence intensity (a.u.) |
| ACCCGCCTGATCTGAGCTCACTGCATTGCCCCGGACTTTCCGGAGTCACCTAGTGCAG | 9720 fluorescence intensity (a.u.) |
| TCTCTTTTCTCATTTATTCACTTGCCACATCATTTTTCATCGGAGTCACCTAGTGCAG | 8900 fluorescence intensity (a.u.) |

Later entries.

Sequence	binding signal
AATCTCTCTTCTCCCTCTCGGCGCACACCCAGATTCCCGCCGGAGTCACCTAGTGCAG	8310 fluorescence intensity (a.u.)
TCTCTCCCTAAAAGATCCTCTGCTCGACTGCTCGCTTCCACGGAGTCACCTAGTGCAG	9760 fluorescence intensity (a.u.)
ATGTCAACTACTCTCTTATTTTTCATATTATAAGTTATTTCGGAGTCACCTAGTGCAG	9280 fluorescence intensity (a.u.)
TATCATGGCTCCCAATTGTTAGGATCTACGAGTTCCATCACGGAGTCACCTAGTGCAG	8880 fluorescence intensity (a.u.)
GATTTCCTCTGATACACCACACATAGTATGCTTTCAAAATCGGAGTCACCTAGTGCAG	10100 fluorescence intensity (a.u.)
TGGTTCGCCTCTTATATCCTTTTTTTTCTTTAATTAATTTCGGAGTCACCTAGTGCAG	8270 fluorescence intensity (a.u.)
GCGCTATGATTAATTAATCACCTCGATCCGCCAGCTCGATCGGAGTCACCTAGTGCAG	8140 fluorescence intensity (a.u.)
CATTTCATTGCTATGAAGGGGCCGGGTATTTGGCATGCTACGGAGTCACCTAGTGCAG	8110 fluorescence intensity (a.u.)
GCACGTCAGAATTGACCAGTTCCAACTTCCAACTCCGATCCGGAGTCACCTAGTGCAG	8600 fluorescence intensity (a.u.)
CGCGTCCTGGCTTGCCCCACCGCACCCGACGCCGCGCAACCGGAGTCACCTAGTGCAG	8090 fluorescence intensity (a.u.)
TTCTTCTTCTTCTTGCTGCTGCTGCTGCTGCTGCTGAATTCGGAGTCACCTAGTGCAG	9780 fluorescence intensity (a.u.)
ACCAGCAGTAGCGCCTGCTAGTTTTGTTGCCTTGTGAAGACGGAGTCACCTAGTGCAG	8340 fluorescence intensity (a.u.)
ACACACTATAGGACCTCGCTCTACCCTTTGATTATATCTCCGGAGTCACCTAGTGCAG	12500 fluorescence intensity (a.u.)
TAGGTGGTGGTGTCGTATCCTTATTTCGGTTTTTTTTTTTCGGAGTCACCTAGTGCAG	13300 fluorescence intensity (a.u.)
GTCTCGCAATTTACACACAATCTGTGTAATTAGTTATTTTCGGAGTCACCTAGTGCAG	8290 fluorescence intensity (a.u.)
CGCCGTCGGAGATCGCCACCCCGAACCACCCGCGCCGCCGCGGAGTCACCTAGTGCAG	8940 fluorescence intensity (a.u.)
GCCTGACCACCGTTCAACTGCGTCTGCAGTTTTATTCCTTCGGAGTCACCTAGTGCAG	8610 fluorescence intensity (a.u.)
AATCTGCGAATGCATCGCGCAGCGCTTCTCATGGGGCAGTCGGAGTCACCTAGTGCAG	8890 fluorescence intensity (a.u.)
ATTACCTACTACCTCCGTCCCATATTACTTGTCTTTTTGACGGAGTCACCTAGTGCAG	10200 fluorescence intensity (a.u.)
GTCCGTAAACCCGAATCATGGCCAGCGTCTATCCAAATCCCGGAGTCACCTAGTGCAG	9120 fluorescence intensity (a.u.)
GGTGGGTTTCGTGGTACGGCTCGCTCTCGTGGTGGGGAATCGGAGTCACCTAGTGCAG	19700 fluorescence intensity (a.u.)
